According to PMC11007818:
These are yes or no findings as the source states them, for the method shown. Binding seen in cells or lysates may run through a third protein. Some binding calls cover weakened binding; strength is not graded here.

The chains behind the UniProt entries cited, without tags or fusion partners.
UniProt Q93009: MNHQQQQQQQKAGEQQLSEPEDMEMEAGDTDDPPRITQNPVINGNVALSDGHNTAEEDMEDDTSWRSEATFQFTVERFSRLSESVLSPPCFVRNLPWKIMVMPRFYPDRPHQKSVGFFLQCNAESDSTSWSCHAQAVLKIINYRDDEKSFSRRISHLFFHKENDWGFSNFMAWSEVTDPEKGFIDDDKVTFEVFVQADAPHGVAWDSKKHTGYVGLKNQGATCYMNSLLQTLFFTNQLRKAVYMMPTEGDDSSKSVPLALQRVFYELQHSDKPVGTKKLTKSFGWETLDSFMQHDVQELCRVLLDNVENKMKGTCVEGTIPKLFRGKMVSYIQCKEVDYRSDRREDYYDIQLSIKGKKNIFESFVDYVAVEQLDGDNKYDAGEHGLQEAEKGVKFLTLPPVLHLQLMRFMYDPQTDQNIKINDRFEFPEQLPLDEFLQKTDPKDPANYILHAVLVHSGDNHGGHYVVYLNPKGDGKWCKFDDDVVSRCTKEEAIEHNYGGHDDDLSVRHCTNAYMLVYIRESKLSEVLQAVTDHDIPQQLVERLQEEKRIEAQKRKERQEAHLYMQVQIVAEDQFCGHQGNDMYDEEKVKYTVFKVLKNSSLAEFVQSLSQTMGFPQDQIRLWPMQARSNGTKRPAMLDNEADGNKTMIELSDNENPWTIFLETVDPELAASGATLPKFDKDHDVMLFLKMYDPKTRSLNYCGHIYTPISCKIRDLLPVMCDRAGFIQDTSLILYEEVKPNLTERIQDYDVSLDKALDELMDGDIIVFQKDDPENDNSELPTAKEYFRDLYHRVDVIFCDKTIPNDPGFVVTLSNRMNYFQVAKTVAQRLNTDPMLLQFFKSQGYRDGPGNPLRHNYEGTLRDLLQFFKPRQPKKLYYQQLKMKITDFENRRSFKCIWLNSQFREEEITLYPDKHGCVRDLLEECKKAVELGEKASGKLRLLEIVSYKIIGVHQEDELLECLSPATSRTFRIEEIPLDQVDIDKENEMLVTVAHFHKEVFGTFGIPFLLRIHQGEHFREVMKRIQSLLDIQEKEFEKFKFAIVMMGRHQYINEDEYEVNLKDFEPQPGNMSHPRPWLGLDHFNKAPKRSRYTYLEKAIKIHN

Molecular target: T1, Ubiquitin-like PHD and RING finger domain-containing protein 1 (human (endogenous in HDF)) (UniProt Q96T88)
T1 sequence: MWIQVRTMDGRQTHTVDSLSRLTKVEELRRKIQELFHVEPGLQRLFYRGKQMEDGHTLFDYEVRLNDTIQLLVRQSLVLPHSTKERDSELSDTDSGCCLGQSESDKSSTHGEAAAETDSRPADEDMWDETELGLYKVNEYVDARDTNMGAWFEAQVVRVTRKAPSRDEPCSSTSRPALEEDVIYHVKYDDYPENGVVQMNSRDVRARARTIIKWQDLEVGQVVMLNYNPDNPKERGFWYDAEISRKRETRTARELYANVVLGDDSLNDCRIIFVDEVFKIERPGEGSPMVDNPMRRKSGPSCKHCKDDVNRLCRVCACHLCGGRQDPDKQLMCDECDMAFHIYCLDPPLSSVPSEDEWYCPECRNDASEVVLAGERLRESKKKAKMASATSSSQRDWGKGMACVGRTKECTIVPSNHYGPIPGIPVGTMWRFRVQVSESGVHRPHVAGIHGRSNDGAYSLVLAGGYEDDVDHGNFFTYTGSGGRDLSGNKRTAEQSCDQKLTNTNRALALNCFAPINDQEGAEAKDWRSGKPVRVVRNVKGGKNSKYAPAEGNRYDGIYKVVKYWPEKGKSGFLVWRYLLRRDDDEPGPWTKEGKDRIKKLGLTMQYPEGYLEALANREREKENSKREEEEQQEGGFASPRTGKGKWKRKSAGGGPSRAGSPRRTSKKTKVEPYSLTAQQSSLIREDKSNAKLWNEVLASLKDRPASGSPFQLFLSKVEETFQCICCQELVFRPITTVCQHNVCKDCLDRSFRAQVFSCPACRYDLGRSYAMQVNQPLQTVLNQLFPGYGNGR
Experiment: co-IP; anti-UHRF1 antibody on Dynabeads Protein A, 0.5 mg pre-cleared lysate of HDFs kept in hypoxia and treated with MG132, AD-04 or DMSO; 10 min at room temperature, washed with TBS-T; blot with anti-USP7

Q: Which binding does the source give for “ubiquitin specific protease 7 (from UniProt Q93009 1-1102) (enzyme)” here?
A: binds
